Laboratory results as given in publication PMC3218940.
Results are given in words; binding and its absence hold for the method and conditions named. Binding seen in cells or lysates may run through a third protein. Some binding calls cover weakened binding; strength is not graded here.

Sequences of proteins named here, by UniProt entry; tags and fusion partners are left off. A change or cut given only in a name is not applied to a line headed by its entry.
UniProt P11388: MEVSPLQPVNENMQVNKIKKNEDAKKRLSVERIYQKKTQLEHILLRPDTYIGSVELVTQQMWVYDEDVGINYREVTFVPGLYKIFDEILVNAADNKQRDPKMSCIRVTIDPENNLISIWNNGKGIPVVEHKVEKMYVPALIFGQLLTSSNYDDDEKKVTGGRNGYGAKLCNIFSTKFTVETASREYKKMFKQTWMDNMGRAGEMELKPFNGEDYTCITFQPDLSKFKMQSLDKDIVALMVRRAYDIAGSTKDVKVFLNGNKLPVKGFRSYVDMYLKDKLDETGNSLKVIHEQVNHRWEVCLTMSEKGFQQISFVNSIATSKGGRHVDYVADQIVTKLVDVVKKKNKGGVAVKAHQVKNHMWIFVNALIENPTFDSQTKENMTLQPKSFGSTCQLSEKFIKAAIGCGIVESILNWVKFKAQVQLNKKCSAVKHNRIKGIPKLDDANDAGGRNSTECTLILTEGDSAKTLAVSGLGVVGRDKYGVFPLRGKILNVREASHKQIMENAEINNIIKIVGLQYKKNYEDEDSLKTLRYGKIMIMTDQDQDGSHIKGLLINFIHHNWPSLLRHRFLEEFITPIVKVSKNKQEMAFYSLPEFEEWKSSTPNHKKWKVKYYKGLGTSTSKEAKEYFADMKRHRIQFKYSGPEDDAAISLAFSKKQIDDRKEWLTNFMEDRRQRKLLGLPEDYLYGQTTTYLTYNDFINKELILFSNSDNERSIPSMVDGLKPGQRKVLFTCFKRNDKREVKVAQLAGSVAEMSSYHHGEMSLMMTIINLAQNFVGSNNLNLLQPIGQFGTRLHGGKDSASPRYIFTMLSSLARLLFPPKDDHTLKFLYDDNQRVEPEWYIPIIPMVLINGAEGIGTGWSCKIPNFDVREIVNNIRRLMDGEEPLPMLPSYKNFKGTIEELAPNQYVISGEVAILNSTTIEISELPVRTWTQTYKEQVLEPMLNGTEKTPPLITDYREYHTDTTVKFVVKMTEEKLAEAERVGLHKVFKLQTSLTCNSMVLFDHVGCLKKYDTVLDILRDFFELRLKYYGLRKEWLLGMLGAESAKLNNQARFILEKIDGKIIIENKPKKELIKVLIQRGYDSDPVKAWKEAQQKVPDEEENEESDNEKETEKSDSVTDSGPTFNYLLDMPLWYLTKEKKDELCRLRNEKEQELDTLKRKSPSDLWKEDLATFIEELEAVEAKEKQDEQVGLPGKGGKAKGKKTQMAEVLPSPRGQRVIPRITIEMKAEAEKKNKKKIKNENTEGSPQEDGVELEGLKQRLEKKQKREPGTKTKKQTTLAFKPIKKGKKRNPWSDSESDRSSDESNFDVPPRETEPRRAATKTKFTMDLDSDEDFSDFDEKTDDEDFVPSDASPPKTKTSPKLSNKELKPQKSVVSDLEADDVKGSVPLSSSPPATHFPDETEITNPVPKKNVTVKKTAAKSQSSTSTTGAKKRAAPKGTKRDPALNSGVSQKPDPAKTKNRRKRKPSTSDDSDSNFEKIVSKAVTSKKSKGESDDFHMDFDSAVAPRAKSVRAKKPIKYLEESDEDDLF
UniProt P49792: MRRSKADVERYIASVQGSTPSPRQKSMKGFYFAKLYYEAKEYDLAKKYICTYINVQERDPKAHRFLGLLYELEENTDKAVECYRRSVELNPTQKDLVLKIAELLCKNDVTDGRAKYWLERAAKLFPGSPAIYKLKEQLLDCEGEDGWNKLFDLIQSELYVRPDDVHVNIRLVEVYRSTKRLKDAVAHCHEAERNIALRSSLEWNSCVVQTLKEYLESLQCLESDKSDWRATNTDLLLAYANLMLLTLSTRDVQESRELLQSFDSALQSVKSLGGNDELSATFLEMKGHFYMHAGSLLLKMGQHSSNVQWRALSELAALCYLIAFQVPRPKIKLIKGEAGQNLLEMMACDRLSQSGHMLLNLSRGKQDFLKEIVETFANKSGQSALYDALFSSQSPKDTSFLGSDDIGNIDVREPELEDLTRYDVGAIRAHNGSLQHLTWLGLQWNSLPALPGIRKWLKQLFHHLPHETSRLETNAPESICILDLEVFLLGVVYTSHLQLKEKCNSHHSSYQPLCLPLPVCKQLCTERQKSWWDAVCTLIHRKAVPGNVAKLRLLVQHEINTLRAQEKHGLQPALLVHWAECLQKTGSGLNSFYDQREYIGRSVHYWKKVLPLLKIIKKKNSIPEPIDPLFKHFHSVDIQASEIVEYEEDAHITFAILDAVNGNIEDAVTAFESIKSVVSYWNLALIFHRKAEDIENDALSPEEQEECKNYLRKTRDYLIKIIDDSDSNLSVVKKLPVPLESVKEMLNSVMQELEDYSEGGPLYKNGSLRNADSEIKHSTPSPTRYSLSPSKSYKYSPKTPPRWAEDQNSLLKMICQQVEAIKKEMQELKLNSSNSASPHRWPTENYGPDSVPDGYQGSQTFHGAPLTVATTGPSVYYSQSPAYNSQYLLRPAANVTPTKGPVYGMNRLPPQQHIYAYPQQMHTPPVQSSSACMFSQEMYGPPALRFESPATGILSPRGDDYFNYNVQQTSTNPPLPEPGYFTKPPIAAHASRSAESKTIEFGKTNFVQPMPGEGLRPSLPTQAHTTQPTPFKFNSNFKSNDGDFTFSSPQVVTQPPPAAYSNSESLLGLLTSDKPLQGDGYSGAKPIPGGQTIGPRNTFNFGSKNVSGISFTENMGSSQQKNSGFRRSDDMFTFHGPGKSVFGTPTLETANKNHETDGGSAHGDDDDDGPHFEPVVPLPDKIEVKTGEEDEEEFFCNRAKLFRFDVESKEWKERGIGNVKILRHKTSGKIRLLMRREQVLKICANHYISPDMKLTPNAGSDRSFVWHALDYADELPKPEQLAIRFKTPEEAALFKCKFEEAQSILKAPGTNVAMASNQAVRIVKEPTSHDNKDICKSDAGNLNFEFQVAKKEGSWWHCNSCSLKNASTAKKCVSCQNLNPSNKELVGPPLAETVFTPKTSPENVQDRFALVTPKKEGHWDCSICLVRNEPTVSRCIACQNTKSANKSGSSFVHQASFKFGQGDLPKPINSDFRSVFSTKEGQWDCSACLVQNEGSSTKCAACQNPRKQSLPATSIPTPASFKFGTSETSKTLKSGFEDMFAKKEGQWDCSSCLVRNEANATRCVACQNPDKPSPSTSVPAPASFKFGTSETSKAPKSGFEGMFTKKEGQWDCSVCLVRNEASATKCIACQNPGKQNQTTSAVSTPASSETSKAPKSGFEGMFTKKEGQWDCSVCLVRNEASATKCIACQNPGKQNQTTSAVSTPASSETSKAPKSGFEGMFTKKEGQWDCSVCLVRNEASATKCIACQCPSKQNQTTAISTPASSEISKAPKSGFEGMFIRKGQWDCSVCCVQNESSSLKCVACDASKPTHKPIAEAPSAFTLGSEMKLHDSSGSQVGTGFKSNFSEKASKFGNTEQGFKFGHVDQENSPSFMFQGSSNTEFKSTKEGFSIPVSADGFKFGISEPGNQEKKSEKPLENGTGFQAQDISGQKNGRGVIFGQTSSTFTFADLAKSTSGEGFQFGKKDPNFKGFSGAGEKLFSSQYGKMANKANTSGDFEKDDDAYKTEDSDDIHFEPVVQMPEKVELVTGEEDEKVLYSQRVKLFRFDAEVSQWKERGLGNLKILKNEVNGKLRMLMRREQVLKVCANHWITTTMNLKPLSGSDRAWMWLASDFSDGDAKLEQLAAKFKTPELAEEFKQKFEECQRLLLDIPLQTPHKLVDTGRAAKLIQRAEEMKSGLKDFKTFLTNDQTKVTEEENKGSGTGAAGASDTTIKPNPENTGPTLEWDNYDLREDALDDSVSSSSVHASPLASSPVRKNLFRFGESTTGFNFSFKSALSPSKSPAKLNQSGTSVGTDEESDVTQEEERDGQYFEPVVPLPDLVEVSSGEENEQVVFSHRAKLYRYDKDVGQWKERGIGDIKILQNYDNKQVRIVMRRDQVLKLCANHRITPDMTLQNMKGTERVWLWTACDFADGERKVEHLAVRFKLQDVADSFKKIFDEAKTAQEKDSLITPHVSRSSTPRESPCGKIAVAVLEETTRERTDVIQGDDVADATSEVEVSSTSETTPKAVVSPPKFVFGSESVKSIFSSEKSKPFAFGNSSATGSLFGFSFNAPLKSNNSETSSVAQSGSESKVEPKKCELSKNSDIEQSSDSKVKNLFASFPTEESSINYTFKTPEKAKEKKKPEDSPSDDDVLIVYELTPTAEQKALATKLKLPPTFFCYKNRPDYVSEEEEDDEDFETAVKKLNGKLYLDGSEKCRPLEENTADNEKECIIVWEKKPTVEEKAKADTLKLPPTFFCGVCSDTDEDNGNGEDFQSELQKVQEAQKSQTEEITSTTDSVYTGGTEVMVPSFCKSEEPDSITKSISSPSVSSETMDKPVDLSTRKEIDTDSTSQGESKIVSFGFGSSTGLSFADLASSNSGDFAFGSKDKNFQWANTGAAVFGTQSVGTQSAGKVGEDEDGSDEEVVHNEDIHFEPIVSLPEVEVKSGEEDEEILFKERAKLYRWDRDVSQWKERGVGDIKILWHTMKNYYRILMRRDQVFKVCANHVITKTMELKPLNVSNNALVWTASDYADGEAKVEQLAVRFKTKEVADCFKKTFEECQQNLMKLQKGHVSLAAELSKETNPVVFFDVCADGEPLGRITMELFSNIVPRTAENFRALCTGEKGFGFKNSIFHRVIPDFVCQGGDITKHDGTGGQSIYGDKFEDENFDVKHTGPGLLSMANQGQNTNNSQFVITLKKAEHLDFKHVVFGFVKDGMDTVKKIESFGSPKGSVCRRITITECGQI
UniProt P08047: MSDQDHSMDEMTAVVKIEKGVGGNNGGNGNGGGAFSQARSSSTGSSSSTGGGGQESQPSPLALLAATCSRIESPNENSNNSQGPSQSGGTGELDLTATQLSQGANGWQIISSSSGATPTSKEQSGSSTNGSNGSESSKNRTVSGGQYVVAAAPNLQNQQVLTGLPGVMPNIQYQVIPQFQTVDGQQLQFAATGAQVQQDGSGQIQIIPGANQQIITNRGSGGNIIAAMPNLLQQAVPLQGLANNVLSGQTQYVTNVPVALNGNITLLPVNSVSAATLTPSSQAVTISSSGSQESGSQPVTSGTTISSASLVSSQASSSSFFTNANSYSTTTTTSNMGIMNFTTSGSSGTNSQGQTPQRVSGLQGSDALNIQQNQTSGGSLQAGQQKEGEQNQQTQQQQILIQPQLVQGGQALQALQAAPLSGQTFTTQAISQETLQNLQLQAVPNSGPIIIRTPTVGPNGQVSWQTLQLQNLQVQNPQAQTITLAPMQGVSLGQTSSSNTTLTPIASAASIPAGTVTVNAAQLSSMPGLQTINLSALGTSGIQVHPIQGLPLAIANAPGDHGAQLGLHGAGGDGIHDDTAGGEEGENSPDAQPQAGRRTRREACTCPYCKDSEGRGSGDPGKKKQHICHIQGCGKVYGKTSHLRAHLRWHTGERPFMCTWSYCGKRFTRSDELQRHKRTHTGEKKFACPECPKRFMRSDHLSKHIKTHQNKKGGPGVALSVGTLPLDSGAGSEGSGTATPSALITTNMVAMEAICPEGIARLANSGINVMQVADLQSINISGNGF
UniProt O00311: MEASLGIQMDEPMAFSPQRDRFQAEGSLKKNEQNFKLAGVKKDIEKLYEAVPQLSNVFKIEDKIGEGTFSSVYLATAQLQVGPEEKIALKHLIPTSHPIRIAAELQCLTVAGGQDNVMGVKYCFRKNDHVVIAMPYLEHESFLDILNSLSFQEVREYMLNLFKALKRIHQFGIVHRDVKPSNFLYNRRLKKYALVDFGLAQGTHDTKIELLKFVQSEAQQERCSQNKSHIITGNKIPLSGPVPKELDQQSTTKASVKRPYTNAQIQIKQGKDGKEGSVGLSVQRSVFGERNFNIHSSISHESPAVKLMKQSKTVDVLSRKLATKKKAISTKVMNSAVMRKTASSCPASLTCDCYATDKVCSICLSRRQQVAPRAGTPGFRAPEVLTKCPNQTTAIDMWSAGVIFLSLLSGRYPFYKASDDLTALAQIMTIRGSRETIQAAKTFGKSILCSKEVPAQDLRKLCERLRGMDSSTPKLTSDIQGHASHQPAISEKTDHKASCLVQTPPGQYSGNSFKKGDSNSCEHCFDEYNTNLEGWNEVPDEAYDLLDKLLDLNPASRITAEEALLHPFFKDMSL

Columns and labels:
[1] = molecular target: topoisomerase IIα (human (endogenous in HME cells)) (UniProt P11388); experiment: co-IP; whole cell extracts of HME or induced Gem9 (geminin-overexpressing) cells; immunoprecipitated with anti-TopoIIα antibody, then immunoblotted
[2] = molecular target: topoisomerase IIα (human (endogenous in HME cells)) (UniProt P11388); experiment: co-IP; total cellular proteins of sonicated HME cells synchronised in G0/G1, S, G2/M and M/G1; immunoprecipitated with anti-Cdc7, anti-geminin, anti-Sp1 (negative control) or anti-TopoIIα antibodies, then immunoblotted
[3] = molecular target: T1, geminin (human (endogenous in HME cells)) (UniProt O75496); experiment: as above
T1 sequence: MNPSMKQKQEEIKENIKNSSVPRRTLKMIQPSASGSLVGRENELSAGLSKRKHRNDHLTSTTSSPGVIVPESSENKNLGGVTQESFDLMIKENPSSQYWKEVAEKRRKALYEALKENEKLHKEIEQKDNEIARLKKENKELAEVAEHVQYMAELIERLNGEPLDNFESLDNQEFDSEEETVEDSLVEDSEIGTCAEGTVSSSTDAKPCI

| Substance | binding [1] | binding [2] | binding [3] |
| --- | --- | --- | --- |
| RAN binding protein 2/ubiquitin-conjugating enzyme 9 complex (from UniProt P49792 1-3224; P63279 1-158) | binds |  |  |
| Sp1 (from UniProt P08047 1-785) |  | no binding | no binding |
| cell division cycle 7 (from UniProt O00311 1-574) (enzyme) |  |  | no binding |
